Results taken from publication PMC4831847.
These are yes or no findings as the source states them, for the method shown. Some binding calls cover weakened binding; strength is not graded here.

Columns and labels:
[1] = target: hPBV capsid protein without the N-terminal peptide (Δ45) (human picobirnavirus (hPBV), strain Hy005102) (UniProt Q50LE5); experiment: virus-like particle assembly (CsCl gradient ultracentrifugation + TEM); CP overexpressed in E. coli; VLPs purified in a CsCl gradient (density ~1.3 g/ml) and imaged by TEM (~35 nm)
[2] = target: human picobirnavirus (hPBV) capsid protein, strain Hy005102, untagged (human picobirnavirus (hPBV), strain Hy005102) (UniProt Q50LE5); experiment: as above

Row | Substance | binding [1] | binding [2]
1 | hPBV capsid protein without the N-terminal peptide (Δ45) (from UniProt Q50LE5 46-552) (domain or fragment) | binds | –
2 | human picobirnavirus (hPBV) capsid protein, strain Hy005102, untagged (from UniProt Q50LE5 1-552) | – | binds
